The values that follow come from the supplement of paper PMC10849652.

The chains behind the UniProt entries cited, without tags or fusion partners. Where a name states a change or a piece, a line headed by the entry shows the natural chain unless it says otherwise.
UniProt O95297: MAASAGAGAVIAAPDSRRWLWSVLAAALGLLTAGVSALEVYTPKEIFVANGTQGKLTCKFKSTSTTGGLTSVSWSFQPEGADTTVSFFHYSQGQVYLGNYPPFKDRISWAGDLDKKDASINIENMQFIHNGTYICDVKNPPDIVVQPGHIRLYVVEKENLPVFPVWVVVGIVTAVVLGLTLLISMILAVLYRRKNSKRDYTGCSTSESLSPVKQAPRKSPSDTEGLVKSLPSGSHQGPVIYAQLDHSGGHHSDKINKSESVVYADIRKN
UniProt Q9H000: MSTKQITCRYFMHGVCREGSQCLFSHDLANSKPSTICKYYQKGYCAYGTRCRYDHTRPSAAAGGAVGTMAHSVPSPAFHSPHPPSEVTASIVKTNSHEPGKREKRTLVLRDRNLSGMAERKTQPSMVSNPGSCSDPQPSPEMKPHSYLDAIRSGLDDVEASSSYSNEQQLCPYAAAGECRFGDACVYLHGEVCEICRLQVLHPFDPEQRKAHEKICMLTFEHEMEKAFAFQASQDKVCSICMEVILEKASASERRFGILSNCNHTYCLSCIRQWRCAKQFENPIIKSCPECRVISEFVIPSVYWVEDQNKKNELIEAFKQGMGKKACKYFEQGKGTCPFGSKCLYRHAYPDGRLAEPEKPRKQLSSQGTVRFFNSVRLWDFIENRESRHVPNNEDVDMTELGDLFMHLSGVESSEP
UniProt Q99797: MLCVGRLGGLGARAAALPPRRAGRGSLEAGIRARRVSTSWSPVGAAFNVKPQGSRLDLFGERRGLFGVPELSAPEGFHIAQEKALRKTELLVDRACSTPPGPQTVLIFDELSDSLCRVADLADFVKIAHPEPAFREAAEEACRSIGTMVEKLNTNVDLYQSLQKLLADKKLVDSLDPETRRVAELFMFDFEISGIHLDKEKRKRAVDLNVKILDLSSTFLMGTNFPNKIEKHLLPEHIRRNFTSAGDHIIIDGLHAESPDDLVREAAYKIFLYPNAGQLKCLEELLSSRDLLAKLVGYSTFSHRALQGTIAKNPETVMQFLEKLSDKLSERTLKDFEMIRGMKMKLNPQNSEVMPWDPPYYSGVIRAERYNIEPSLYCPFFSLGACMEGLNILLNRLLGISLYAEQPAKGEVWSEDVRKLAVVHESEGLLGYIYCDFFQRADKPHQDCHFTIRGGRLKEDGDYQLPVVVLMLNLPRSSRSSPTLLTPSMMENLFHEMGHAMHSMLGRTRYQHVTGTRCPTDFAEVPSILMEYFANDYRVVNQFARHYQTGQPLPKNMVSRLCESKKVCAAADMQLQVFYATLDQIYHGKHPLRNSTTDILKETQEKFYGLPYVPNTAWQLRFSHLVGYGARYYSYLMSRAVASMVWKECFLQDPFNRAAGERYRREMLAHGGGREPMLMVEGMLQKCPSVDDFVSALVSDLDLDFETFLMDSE
UniProt O95563: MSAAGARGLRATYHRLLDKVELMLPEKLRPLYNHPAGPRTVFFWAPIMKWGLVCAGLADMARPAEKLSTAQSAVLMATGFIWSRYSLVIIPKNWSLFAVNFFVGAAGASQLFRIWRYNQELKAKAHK
UniProt Q96T76: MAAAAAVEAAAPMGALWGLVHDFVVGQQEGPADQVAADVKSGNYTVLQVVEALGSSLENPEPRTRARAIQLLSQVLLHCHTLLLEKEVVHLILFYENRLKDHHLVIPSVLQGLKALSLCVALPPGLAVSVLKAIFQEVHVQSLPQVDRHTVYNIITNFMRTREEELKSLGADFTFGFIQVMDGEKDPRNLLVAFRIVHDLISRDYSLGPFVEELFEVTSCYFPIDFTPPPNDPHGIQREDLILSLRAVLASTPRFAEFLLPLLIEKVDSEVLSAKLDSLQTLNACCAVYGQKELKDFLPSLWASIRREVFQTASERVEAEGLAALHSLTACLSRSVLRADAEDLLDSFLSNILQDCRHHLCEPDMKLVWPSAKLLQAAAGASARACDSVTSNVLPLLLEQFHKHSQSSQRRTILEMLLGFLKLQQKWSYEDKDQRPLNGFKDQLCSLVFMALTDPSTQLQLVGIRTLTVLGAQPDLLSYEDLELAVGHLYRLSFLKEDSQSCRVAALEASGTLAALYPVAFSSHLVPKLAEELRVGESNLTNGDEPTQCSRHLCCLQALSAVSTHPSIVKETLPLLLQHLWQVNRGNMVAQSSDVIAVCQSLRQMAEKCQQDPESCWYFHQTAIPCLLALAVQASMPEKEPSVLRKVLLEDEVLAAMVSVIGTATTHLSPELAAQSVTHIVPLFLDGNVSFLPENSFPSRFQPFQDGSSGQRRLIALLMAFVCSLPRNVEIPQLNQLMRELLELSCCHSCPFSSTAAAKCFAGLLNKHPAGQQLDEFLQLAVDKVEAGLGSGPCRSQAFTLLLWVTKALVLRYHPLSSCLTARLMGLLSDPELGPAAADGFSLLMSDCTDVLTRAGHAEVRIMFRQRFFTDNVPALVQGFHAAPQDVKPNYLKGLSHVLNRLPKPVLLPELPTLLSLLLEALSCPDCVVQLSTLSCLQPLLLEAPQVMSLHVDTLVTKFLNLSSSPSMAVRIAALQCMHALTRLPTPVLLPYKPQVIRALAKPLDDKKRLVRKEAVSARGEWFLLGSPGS
UniProt Q96BX8: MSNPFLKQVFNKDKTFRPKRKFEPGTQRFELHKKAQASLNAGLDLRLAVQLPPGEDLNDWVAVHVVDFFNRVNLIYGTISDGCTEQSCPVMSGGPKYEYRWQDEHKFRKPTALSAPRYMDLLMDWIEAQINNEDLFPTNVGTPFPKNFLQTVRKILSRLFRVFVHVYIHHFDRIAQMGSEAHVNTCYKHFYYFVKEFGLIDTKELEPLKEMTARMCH
UniProt Q5XKP0: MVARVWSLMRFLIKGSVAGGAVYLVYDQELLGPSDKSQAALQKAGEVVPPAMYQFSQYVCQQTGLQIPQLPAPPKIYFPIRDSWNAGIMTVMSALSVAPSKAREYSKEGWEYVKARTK
UniProt Q99547: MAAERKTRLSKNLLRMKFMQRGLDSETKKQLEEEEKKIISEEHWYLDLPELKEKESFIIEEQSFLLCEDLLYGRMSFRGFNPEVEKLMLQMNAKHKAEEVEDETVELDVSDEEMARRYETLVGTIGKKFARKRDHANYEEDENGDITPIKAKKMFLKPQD
UniProt Q9UL63, whole entry, looked up: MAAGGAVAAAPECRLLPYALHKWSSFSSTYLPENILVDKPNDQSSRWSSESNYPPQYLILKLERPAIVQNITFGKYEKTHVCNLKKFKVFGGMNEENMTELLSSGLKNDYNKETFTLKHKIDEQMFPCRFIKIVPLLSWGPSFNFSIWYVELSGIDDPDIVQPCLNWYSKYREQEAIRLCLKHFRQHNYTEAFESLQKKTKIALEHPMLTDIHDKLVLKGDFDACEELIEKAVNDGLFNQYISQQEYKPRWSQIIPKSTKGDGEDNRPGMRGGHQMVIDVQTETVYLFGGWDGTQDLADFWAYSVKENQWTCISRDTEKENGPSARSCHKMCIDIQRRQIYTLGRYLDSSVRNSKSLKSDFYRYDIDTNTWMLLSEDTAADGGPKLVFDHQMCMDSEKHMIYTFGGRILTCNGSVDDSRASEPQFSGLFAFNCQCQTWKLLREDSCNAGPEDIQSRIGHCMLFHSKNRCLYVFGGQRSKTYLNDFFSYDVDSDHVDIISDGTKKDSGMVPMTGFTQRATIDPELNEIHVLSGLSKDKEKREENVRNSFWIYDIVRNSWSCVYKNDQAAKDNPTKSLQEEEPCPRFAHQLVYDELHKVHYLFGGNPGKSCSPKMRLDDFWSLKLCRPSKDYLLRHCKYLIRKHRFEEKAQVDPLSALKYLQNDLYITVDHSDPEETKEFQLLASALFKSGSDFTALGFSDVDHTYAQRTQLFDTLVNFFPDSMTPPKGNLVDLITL
UniProt Q9H8M7: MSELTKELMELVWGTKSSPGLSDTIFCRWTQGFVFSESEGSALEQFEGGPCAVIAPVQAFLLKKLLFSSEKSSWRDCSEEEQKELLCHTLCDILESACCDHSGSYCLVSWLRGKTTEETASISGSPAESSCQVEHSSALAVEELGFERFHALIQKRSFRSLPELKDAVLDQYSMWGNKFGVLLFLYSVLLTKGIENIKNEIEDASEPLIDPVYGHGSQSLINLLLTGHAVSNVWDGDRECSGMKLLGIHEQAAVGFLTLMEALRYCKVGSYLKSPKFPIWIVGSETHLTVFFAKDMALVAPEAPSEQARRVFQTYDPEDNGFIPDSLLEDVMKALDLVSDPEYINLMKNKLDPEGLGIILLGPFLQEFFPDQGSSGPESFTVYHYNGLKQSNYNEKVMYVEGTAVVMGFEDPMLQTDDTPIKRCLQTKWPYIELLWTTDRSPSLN
UniProt Q9BRT3: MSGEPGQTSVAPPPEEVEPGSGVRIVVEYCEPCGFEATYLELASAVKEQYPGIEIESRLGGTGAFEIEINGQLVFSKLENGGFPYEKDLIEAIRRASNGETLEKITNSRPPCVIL
UniProt Q9BU76: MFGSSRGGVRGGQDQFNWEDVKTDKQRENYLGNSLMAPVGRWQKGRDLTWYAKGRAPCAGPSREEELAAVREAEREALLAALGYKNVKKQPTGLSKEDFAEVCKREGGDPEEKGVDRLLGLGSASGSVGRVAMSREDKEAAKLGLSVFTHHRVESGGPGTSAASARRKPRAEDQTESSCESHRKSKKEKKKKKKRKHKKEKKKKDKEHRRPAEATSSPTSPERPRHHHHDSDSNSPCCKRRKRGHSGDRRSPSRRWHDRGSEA
UniProt O96007: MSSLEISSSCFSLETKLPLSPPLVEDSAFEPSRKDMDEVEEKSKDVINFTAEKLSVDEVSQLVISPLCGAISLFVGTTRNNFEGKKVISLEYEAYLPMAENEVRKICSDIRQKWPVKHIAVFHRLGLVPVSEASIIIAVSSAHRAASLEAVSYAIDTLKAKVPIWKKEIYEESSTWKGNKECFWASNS
UniProt P25325: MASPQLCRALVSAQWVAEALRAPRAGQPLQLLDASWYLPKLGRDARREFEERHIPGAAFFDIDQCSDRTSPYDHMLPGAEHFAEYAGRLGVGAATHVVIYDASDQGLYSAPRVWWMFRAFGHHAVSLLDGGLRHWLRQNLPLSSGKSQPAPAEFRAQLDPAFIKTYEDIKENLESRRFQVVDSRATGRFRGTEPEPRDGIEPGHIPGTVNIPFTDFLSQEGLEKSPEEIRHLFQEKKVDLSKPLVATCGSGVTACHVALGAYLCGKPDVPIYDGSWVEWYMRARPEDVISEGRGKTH
UniProt P34949: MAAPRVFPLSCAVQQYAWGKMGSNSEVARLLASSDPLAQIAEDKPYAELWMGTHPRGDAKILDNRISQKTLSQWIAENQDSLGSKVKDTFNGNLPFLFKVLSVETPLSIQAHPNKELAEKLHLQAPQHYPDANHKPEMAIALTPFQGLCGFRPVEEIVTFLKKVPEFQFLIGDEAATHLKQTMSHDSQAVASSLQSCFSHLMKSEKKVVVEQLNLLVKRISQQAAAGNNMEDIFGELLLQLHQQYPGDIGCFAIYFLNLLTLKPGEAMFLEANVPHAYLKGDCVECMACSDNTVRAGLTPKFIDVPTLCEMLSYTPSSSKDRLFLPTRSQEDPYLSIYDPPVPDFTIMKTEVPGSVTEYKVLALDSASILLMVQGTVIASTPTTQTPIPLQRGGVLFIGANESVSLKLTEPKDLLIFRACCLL
UniProt P14174: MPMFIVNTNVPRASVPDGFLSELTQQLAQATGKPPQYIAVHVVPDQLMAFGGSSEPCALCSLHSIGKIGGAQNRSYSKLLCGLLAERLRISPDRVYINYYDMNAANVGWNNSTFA
UniProt P49959: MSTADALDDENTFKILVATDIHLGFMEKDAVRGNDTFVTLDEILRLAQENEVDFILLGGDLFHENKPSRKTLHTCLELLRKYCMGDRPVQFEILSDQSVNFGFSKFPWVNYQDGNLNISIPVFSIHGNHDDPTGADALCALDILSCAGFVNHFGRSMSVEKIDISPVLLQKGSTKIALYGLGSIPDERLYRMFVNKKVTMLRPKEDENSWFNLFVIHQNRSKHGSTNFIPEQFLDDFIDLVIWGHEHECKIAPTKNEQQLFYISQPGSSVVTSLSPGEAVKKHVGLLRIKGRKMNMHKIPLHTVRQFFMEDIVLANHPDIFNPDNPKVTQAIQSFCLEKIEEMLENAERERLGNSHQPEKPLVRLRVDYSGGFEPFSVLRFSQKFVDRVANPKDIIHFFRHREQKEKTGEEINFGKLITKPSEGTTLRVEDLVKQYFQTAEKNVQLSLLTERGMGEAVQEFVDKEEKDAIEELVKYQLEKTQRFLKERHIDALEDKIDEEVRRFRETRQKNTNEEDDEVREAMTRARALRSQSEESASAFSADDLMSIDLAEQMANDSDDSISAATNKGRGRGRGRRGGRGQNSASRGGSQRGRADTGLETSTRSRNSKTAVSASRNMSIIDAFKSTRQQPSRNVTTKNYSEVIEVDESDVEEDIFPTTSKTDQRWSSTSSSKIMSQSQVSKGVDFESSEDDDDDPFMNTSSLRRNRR
UniProt A9UHW6: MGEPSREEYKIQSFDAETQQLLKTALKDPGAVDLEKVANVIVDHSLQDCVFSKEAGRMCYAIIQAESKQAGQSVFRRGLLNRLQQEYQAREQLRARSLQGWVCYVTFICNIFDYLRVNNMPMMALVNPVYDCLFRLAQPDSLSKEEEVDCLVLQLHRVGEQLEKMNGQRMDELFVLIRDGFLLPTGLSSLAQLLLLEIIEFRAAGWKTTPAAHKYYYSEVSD

This is one part of the list.

Compound in the first assay: COC1=CC=C(C=C1)CN2C=CC3=C2C=C(C=C3)C(=O)NO
In words: log2 fold change, soluble protein after heating vs DMSO (PISA); higher = thermal stabilisation; K562 cells, 10 uM, 30 min; active = over 0.2 and 3.5 SD of the protein, either way, in both replicates (recomputed). The method in brief: (§1)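 For each measurement, 10 μM compound was applied for 30 min to K562 cells at 2×10^6 cells/mL. Aliquots were heated for 3 min across 48°C-58°C, pooled, and extracted in PBS with 0.5% NP-40 at 4°C; the supernatant after 21,000xg for 90 min was soluble protein. This was quantified by TMTpro 16plex LC-MS/MS with channel sums equalised, and thermal stability was reported relative to control samples from duplicates, on a log2 fold-change scale.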
MRPL22 (UniProt Q9NWU5): the log2 fold change was inactive: -0.077.
Regarding MPZL1 (UniProt O95297), the log2 fold change is inactive: -0.035.
On to MRPL27 (UniProt Q9P0M9), for which the log2 fold change is inactive: -0.024.
On to MKRN2 (UniProt Q9H000), for which the log2 fold change is inactive: 0.024.
With MIPEP (UniProt Q99797), the log2 fold change was inactive: 0.
As to MRPL55 isoform 2 (UniProt Q7Z7F7), the log2 fold change is inactive: -0.048.
In the case of MRPL30 isoform 2 (UniProt Q8TCC3), the log2 fold change is inactive: 0.089.
On to MPC2 (UniProt O95563), for which the log2 fold change was inactive: -0.051.
The same measure, in the same setting: next, MMS19 isoform 8 (UniProt Q96T76): inactive: -0.094; MOB3A (UniProt Q96BX8): inactive: 0.007; MICOS13 (UniProt Q5XKP0): inactive: 0.
MPHOSPH6 (UniProt Q99547): the log2 fold change is inactive: -0.078.
On to MKLN1 (UniProt Q9UL63), for which the log2 fold change was inactive: 0.017.
Still for that read-out and setting: next, MINDY3 (UniProt Q9H8M7): inactive: -0.005; MRPL1 (UniProt Q9BYD6): inactive: -0.021; MIEN1 (UniProt Q9BRT3): inactive: -0.084.

Compound in a further assay: CON(C)C(=O)N1N=C(c2cc(F)ccc2F)S[C@@]1(CCCN)c1ccccc1 [filanesib]
Described as above. In short, it runs like this: as §1
For the target MRPL41 (UniProt Q8IXM3), the log2 fold change is inactive: 0.213.
On to MMTAG2 (UniProt Q9BU76), for which the log2 fold change was inactive: 0.47.
For MOCS2 (UniProt O96007), the log2 fold change was inactive: -0.05.
In the case of MMAB (UniProt Q96EY8), the log2 fold change is inactive: 0.017.
On the same count and under the same terms, next, MPST isoform 2 (UniProt P25325): inactive: 0.101; MRPL53 (UniProt Q96EL3): inactive: 0.172.
For the target MPI (UniProt P34949), the log2 fold change is inactive: -0.018.
Consider MIF (UniProt P14174), for which the log2 fold change was inactive: 0.024.
As to MRPL50 (UniProt Q8N5N7), the log2 fold change is inactive: 0.078.
The same measure, in the same setting: for MRPL51 (UniProt Q4U2R6) the value was inactive: 0.212; for MRPL42 (UniProt Q9Y6G3), inactive: 0.198; for MRPL45 (UniProt Q9BRJ2), inactive: 0.124.
For MIOS (UniProt Q9NXC5), the log2 fold change was inactive: 0.119.
For the target MRE11 isoform 3 (UniProt P49959), the log2 fold change was inactive: 0.004.
As to MPHOSPH8 isoform 2 (UniProt Q99549), the log2 fold change was inactive: 0.128.
Still for that read-out and setting: next, MRPL19 (UniProt P49406): inactive: 0.17; MIEF1 (UniProt L0R8F8): inactive: -0.072; MRPL28 (UniProt Q13084): inactive: 0.159.
Regarding MIF4GD isoform 3 (UniProt A9UHW6), the log2 fold change was inactive: 0.041.
MRPL4 (UniProt Q9BYD3): the log2 fold change is inactive: 0.013.
On to MRPL46 (UniProt Q9H2W6), for which the log2 fold change was inactive: 0.068.
In the case of MINK1 (UniProt Q8N4C8), the log2 fold change was inactive: -0.003.
As for MRPL20 (UniProt Q9BYC9), the log2 fold change is inactive: 0.169.
For MRPL22 (UniProt Q9NWU5), the log2 fold change was inactive: 0.209.
On the same count and under the same terms, for MPZL1 (UniProt O95297) the value was inactive: 0.095; for MRPL27 (UniProt Q9P0M9), inactive: 0.138.
As for MKRN2 (UniProt Q9H000), the log2 fold change is inactive: 0.137.
On the same count and under the same terms, for MIPEP (UniProt Q99797) the value was inactive: -0.07; for MRPL55 isoform 2 (UniProt Q7Z7F7), inactive: 0.081; for MRPL30 isoform 2 (UniProt Q8TCC3), inactive: 0.248.
With MPC2 (UniProt O95563), the log2 fold change was inactive: -0.055.
On to MMS19 isoform 8 (UniProt Q96T76), for which the log2 fold change was inactive: -0.036.
In the case of MOB3A (UniProt Q96BX8), the log2 fold change was inactive: -0.299.
The same measure, in the same setting: next, MICOS13 (UniProt Q5XKP0): inactive: -0.095; MPHOSPH6 (UniProt Q99547): inactive: 0.126; MKLN1 (UniProt Q9UL63): inactive: 0.073.
The same measure, in the same setting: for MINDY3 (UniProt Q9H8M7) the value was inactive: -0.04; for MRPL1 (UniProt Q9BYD6), inactive: 0.102.
Regarding MIEN1 (UniProt Q9BRT3), the log2 fold change is inactive: 0.085.

Compound in a further assay: CO[C@H]1C[C@@H]2CC[C@@H](C)[C@@](O)(O2)C(=O)C(=O)N2CCCC[C@H]2C(=O)O[C@H]([C@H](C)C[C@@H]2CC[C@H](n3cnnn3)[C@H](OC)C2)CC(=O)[C@H](C)/C=C(\C)[C@@H](O)[C@@H](OC)C(=O)[C@H](C)C[C@H](C)/C=C/C=C/C=C/1C [zotarolimus]
Described as above. The method in brief: as §1
On to MRPL41 (UniProt Q8IXM3), for which the log2 fold change is inactive: 0.083.
Take MMTAG2 (UniProt Q9BU76): the log2 fold change is inactive: 0.037.
MOCS2 (UniProt O96007): the log2 fold change is inactive: -0.031.
MMAB (UniProt Q96EY8): the log2 fold change is inactive: -0.06.
On to MPST isoform 2 (UniProt P25325), for which the log2 fold change is inactive: 0.025.
Turning to MRPL53 (UniProt Q96EL3), the log2 fold change is inactive: 0.066.
Still for that read-out and setting: for MPI (UniProt P34949) the value was inactive: -0.049; for MIF (UniProt P14174), inactive: 0.029.
Still for that read-out and setting: next, MRPL50 (UniProt Q8N5N7): inactive: 0.202.
Turning to MRPL51 (UniProt Q4U2R6), the log2 fold change was inactive: 0.056.
In the case of MRPL42 (UniProt Q9Y6G3), the log2 fold change was inactive: -0.075.
As for MRPL45 (UniProt Q9BRJ2), the log2 fold change was inactive: 0.037.
In the case of MIOS (UniProt Q9NXC5), the log2 fold change is inactive: -0.001.
Take MRE11 isoform 3 (UniProt P49959): the log2 fold change is inactive: 0.01.
Still for that read-out and setting: for MPHOSPH8 isoform 2 (UniProt Q99549) the value was inactive: -0.191; for MRPL19 (UniProt P49406), inactive: 0.163; for MIEF1 (UniProt L0R8F8), inactive: 0.023.
Take MRPL28 (UniProt Q13084): the log2 fold change was inactive: 0.158.
Still for that read-out and setting: next, MIF4GD isoform 3 (UniProt A9UHW6): inactive: 0.044.
Consider MRPL4 (UniProt Q9BYD3), for which the log2 fold change is inactive: 0.01.
On the same count and under the same terms, for MRPL46 (UniProt Q9H2W6) the value was inactive: 0.1.
On to MINK1 (UniProt Q8N4C8), for which the log2 fold change is inactive: 0.014.
Turning to MRPL20 (UniProt Q9BYC9), the log2 fold change is inactive: 0.16.
Turning to MRPL22 (UniProt Q9NWU5), the log2 fold change was inactive: 0.122.
As for MPZL1 (UniProt O95297), the log2 fold change was inactive: 0.014.
The same measure, in the same setting: next, MRPL27 (UniProt Q9P0M9): inactive: 0.026; MKRN2 (UniProt Q9H000): inactive: -0.035; MIPEP (UniProt Q99797): inactive: 0.017.
On to MRPL55 isoform 2 (UniProt Q7Z7F7), for which the log2 fold change is inactive: 0.054.
On the same count and under the same terms, for MRPL30 isoform 2 (UniProt Q8TCC3) the value was inactive: 0.14; for MPC2 (UniProt O95563), inactive: -0.015.
Take MMS19 isoform 8 (UniProt Q96T76): the log2 fold change was inactive: 0.037.
For MOB3A (UniProt Q96BX8), the log2 fold change was inactive: 0.059.
Same read-out and setting: next, MICOS13 (UniProt Q5XKP0): inactive: -0.048; MPHOSPH6 (UniProt Q99547): inactive: 0.064.
For the target MKLN1 (UniProt Q9UL63), the log2 fold change is inactive: -0.007.
Regarding MINDY3 (UniProt Q9H8M7), the log2 fold change is inactive: 0.
Still for that read-out and setting: next, MRPL1 (UniProt Q9BYD6): inactive: 0.091; MIEN1 (UniProt Q9BRT3): inactive: 0.015.
